From patent US11981626B1, “Compound embodiments for hydrogen sulfide production and methods of making and using the same” (University of Oregon, priority 2018, dated 2024)

Test: H2S production measured by methylene blue (MB) assay in PBS containing BSA and CA
Assay type: physicochemical
Settings: 50 μM by-product, PBS pH 7.4, BSA
Protocol: Using the same conditions, H2S production was measured at different time points using the MB assay (FIG. 5A, curve labeled with the “▾” symbol). The MB assay allows for H2S quantification from the reaction of H2S with N,N-dimethyl-p-phenylenediamine in the presence of FeCl3 and acid to produce methylene blue (MB, λmax=670). In the MB assay, a γ-KetoTCM-1 stock solution (100 μL, 10.0 mM in DMSO) was added to 20.0 mL of PBS (pH 7.40, 10.0 mM) containing BSA (5.00 mg/mL) and CA (25.0 μg/mL) in a 25-mL scintillation vial at 37° C. Next, 0.300 mL aliquots of the reaction mixture were transferred to UV cuvettes containing 0.300 mL of MB cocktail at different time points. The MB reaction mixture was incubated at room temperature for 1 hour and the precipitate was removed using syringe filters. The absorbance at 670 nm was then measured and was converted to H2S concentration by using the H2S calibration curve in FIG. 6. […] The MB solution was allowed to react with H2S for 1 hour before measuring the absorbance at 670 nm.
The linearity between these two methods was lost after 60 minutes due to the oxidation of H2S in the MB assay at extended incubation times (FIG. 5A). […] The absorbance at 670 nm was then measured and converted to H2S concentration by using the H2S calibration curve in FIG. 6. […]

Compound | response of reaction by-products in the MB assay
C=CC(C)=O [MVK, methyl vinyl ketone] | did not provide a positive response
Nc1ccc([N+](=O)[O-])cc1 [PNA, para-nitroaniline] | did not provide a positive response
